Test results taken from patent US20230220056A1.
Numbering of substitutions follows the chain as printed. No constants are given. Whether binding was seen depends on the method and setting. A result given as binding can be weak or reduced; the word gives no strength.

B1: anti-GRP94 human IgG antibody B5 (antibody, V domains shown)
VH: EVQLLESGGGLVQPGGSLRLSCAASGFTFSNYYMSWVRQAPGKGLEWVSGIYPNSGSTYYADSVKGRFTISRDNSKNTLYLQMNSLRAEDTAVYYCARDPLHPARFPFDYWGQGTLVTVSS
VL: QSVLTQPPSASGTPGQRVTISCTGSSSNIGNNAVSWYQQLPGTAPKLLIYADSHRPSGVPDRFSGSKSGTSASLAISGLRSEDEADYYCGAWDASLNAYVFGGGTKLTVL
B2: anti-GRP94 human IgG antibody E5 (antibody, V domains shown)
VH: EVQLLESGGGLVQPGGSLRLSCAASGFTFSNYAMSWVRQAPGKGLEWVSGISSSSGSTYYADSVKGRFTTSRDNSKNTLYLQMNSLRAEDTAVYYCARDRHPFSPNWFDYWGQGTLVTVSS
VL: B1 VL with T23S, S26P, N31S, A33T, S35T, G90A, A91S, A94D, A98G
B3: anti-GRP94 human IgG antibody 3G7 (antibody, V domains shown)
VH: EVQLLESGGGLVQPGGSLRLSCAASGFTFSNYSMSWVRQAPGKGLEWVSGIYYGSGNKYYADSVKGRFTISRDNSKNTLYLQMNSLRAEDTAVYYCAKNLASFDYWGQGTLVTVSS
VL: B1 VL with T23S, N31S, A33S, S35N, A51S, D52N, A91T, A94S, N97S, A98G

molecular target: recombinant monkey GRP94 (monkey); assay: ELISA, antigen coated on plate

binding, binds:
B1
B2
B3

molecular target: recombinant monkey GRP94 (monkey); assay: ELISA on coated antigen, single IgG concentration not given

binding, binds:
B1
B2
B3
